Results: PMC4680915
These are yes or no findings as the source states them, for the method shown.

Biological target: E. coli RNA 5′ pyrophosphohydrolase (RppH) (Escherichia coli) (UniProt P0A776)
Experiment: SEC; HiPrep 26/60 Superdex 200 prep grade; 50 mM Tris-HCl pH 7.5, 1 mM EDTA, 0.30 M NaCl; 2.0 mL/min; EcRppH peak at 259.4 mL, compared with molecular weight standards (myoglobin Mr 17,000 at 253.4 mL); both purified

binding: no binding
B1: E. coli RNA 5′ pyrophosphohydrolase (RppH) (enzyme, UniProt P0A776 1-176)
chain: MIDDDGYRPNVGIVICNRQGQVMWARRFGQHSWQFPQGGINPGESAEQAMYRELFEEVGLSRKDVRILASTRNWLRYKLPKRLVRWDTKPVCIGQKQKWFLLQLVSGDAEINMQTSSTPEFDGWRWVSYWYPVRQVVSFKRDVYRRVMKEFASVVMSLQENTPKPQNASAYRRKRG
